No constants are given. Whether binding was seen depends on the method and setting. Binding seen in cells or lysates may run through a third protein. Some entries that bind do so weakly or less than the wild type. Where a sequence is shown, tags or fusion partners need not be part of it.
Molecular target: T1, wild-type C21orf2 tagged with a C-terminal turbo-GFP (tGFP) (human) (UniProt O43822)
T1 sequence: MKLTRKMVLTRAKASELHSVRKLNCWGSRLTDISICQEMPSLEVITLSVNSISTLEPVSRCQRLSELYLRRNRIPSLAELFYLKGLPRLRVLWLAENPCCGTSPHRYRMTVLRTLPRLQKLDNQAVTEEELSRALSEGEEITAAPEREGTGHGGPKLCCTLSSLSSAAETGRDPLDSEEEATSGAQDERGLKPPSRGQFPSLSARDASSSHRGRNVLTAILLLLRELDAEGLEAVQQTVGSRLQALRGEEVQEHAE
Assay: co-IP

Sequences of proteins named here, by UniProt entry; tags and fusion partners are left off.
UniProt O15078: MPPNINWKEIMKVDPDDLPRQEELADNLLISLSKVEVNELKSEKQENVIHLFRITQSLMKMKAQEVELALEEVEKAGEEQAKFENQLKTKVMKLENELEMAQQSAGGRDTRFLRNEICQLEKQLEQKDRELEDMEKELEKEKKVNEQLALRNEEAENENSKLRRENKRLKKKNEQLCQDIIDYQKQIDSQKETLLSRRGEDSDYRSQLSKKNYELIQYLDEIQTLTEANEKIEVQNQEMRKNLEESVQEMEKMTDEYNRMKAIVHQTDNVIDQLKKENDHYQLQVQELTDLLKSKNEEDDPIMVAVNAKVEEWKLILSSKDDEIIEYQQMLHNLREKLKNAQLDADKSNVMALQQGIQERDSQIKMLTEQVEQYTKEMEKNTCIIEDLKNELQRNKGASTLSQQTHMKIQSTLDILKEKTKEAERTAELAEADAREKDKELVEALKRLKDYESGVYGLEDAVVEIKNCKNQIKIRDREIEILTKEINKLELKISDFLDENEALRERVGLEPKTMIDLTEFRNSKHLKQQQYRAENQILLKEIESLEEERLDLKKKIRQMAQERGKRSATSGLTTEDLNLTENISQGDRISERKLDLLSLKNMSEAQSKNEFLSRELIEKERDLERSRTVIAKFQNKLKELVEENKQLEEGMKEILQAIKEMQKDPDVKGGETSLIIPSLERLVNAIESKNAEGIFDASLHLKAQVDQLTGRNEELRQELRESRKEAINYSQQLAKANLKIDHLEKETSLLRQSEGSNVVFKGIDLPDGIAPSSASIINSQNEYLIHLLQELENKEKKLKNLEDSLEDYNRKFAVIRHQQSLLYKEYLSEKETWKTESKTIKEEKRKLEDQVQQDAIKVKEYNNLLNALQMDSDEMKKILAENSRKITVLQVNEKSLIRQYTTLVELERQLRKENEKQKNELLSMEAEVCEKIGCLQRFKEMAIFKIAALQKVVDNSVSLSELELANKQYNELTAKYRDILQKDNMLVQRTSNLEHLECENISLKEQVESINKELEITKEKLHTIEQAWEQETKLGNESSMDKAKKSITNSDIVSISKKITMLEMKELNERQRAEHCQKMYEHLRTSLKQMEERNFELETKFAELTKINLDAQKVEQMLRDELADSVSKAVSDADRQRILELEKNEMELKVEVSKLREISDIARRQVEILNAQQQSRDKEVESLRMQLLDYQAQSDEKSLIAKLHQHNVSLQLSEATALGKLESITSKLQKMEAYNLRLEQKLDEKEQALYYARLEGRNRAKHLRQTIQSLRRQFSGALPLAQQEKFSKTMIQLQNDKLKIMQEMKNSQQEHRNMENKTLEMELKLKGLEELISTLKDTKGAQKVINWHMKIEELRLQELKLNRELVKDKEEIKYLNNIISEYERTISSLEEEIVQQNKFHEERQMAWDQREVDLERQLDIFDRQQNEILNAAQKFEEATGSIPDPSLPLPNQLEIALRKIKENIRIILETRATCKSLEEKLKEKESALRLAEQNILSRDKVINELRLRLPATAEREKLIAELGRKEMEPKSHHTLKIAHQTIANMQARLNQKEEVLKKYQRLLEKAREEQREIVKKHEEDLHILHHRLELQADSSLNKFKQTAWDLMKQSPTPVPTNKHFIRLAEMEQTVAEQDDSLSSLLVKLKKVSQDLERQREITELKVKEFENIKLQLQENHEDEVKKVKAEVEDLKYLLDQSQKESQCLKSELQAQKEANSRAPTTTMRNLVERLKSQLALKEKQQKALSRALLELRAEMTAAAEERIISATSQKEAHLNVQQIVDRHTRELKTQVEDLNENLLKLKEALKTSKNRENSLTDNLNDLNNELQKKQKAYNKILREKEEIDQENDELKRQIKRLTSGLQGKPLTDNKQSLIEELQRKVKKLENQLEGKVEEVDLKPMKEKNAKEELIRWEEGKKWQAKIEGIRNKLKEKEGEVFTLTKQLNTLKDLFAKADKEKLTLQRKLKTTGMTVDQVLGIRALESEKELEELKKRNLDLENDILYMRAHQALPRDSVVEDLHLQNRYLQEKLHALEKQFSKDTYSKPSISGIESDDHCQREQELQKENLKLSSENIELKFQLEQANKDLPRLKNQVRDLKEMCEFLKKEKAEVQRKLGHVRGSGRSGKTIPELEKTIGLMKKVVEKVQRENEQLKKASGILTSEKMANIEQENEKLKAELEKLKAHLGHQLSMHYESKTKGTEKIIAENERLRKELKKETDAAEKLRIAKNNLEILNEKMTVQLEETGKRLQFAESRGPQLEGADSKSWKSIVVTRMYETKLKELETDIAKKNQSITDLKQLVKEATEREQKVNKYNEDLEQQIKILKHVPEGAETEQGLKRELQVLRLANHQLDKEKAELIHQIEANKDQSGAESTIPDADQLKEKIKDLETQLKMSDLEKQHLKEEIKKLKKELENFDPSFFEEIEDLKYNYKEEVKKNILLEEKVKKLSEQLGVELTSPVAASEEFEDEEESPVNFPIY

binding: binds
Substance: centrosomal protein of 290kDA (CEP290) (from UniProt O15078 1-2479)

— paper doi:10.1101/2022.02.28.482239
